Measurements reported in PubChem BioAssay AID540335 (Broad Institute, 2011).
Hit rate of the full screen: of about 1,300 compounds, about 270 (21%) were called active.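 How the source made its calls: active means dose-dependent rise or fall in viability, either side of zero, with half-maximal concentration at or below a set limit; inconclusive means flat curve at 30 to 70% viability loss, or poor fit; inactive means flat within 30% either way, or potency beyond limit.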 Some of the results follow. Measured potencies and affinities stand elsewhere.

Assay: proliferation inhibition in MITF-low A375 cells – cell-based, cherry-pick samples, set 2, counter-screen for MITF modulator project, dose response (AID 540335);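 further: A375 human melanoma cells which do not depend on MITF; 0% = median of neutral control wells and 100% = double that signal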
Settings: CellTiter-Glo ATP luminescence, 24 h; at 35 µM (top of the series)

Row | SMILES | activity change, negative = decreased viability
1 | Cc1cc(C(=O)Nc2ccccc2)nn1C(C)(C)C | inactive: 3.82%
2 | CC[n+]1c(-c2ccccc2)c2cc(N)ccc2c2ccc(N)cc21 | inactive: -32.4%
3 | CN1C(=O)/C(=C/c2cccn2-c2ccc3ccccc3c2)C(=O)NC1=S | inactive: 7.08%
4 | O=C1NC(=O)N(Cc2ccccc2Cl)C(=O)/C1=C/c1cccs1 | inactive: -13.7%
5 | O=C1NC(=O)N(Cc2ccc(F)cc2)C(=O)/C1=C\C=C\c1ccco1 | inactive: 28.1%
6 | CC[n+]1c(/C=C/N(C)c2ccccc2)sc2ccc(Cl)cc21 | inactive: -15.9%
7 | S=C=Nc1cccc(C2(N3CCCCC3)CCCCC2)c1 | inactive: -30.9%
8 | Cc1ccc(N2C(=O)NC(=O)/C(=C\C=C\c3ccco3)C2=O)cc1 | inactive: 18.4%
9 | O=c1[nH]c(=S)[nH]c(O)c1N=Nc1ccc(S(=O)(=O)N2CCc3ccccc32)cc1 | inactive: 5.93%
10 | COc1ccc(-c2cc(-c3ccccc3)[n+](C)c(-c3ccccc3)c2)cc1 | inactive: -9.24%
11 | Cc1cc(C(=O)Nc2ccc3c(c2)OCCO3)nn1C(C)(C)C | inactive: -4.89%
12 | COc1cc2c(cc1/C=C/[N+](=O)[O-])OCO2 | inactive: -38.5%
13 | O=c1c2ccccc2nc(/C=C/c2ccc([N+](=O)[O-])o2)n1-c1ccc(O)cc1 | inactive: -7.41%
14 | CCCCCn1c(=O)c(C(=O)Nc2cnccn2)c(O)c2ccccc21 | inactive: -3.94%
15 | CCOC(=O)c1c(-n2c(C)cc(C=C3C(=O)NC(=S)NC3=O)c2C)sc2c1CCCC2 | inactive: 9.13%
16 | C=CCN1C(=O)NC(=O)/C(=C/C=C/c2ccccc2)C1=O | inactive: 45.4%
17 | Cc1cc(C)cc(N2C(=O)NC(=O)/C(=C\c3cccn3-c3ccccc3)C2=O)c1 | inactive: -17.3%
18 | O=C1NC(=O)C(=Cc2ccc(-c3ccc(Cl)cc3)o2)C(=O)N1 | inactive: 6.73%

Taken from above:
For activity change, negative = decreased viability, `CC[n+]1c(/C=C/N(C)c2ccccc2)sc2ccc(Cl)cc21` reads inactive: -15.9%
For activity change, negative = decreased viability, `O=c1[nH]c(=S)[nH]c(O)c1N=Nc1ccc(S(=O)(=O)N2CCc3ccccc32)cc1` reads inactive: 5.93%

Going on with the list:

Row | SMILES | activity change, negative = decreased viability
19 | CCOc1ccc(-c2cc(C)[n+](CCO)c(-c3ccc(OCC)cc3)c2)cc1 | inactive: 5.2%
20 | O=C1NC(=O)C(=Cc2ccc(-c3cc(Cl)ccc3[N+](=O)[O-])o2)C(=O)N1 | inactive: 10.4%
21 | C=CCN1C(=O)/C(=C/c2cc(C)n(-c3cccnc3)c2C)C(=O)NC1=S | inactive: -15.1%
22 | CC(C)n1c(O)c(C2c3cc(Cl)ccc3Oc3[nH]c(=O)n(C(C)C)c(=O)c32)c(=O)[nH]c1=O (stereo not given) | inactive: 40.4%
23 | CN(C)c1ccc(/C=C2/C(=N\O)C3CCN2CC3)cc1 | inactive: 6.95%
24 | O=C1NC(=O)N(Cc2ccccc2)C(=O)/C1=C/C=C/c1ccco1 | inactive: 57.1%
25 | COc1ccc(Oc2cc(NC(=O)c3nn(C)cc3[N+](=O)[O-])cc([N+](=O)[O-])c2)cc1 | inactive: 9.82%
26 | O=C1NC(=S)NC(=O)C1=Cc1cccn1-c1ccc(O)cc1 | inactive: -17.4%
27 | Cc1ccc(N2C(=O)NC(=O)/C(=C/C=C/c3ccco3)C2=O)cc1 | inactive: 69%
28 | CCCCCCn1c(=O)c(C(=O)Nc2cnccn2)c(O)c2ccccc21 | inactive: -13.2%
29 | Cc1ccc(C(O)(c2ccc(C)c(C)c2)C2CN3CCC2CC3)cc1C (stereo not given) | inactive: -75.9%
30 | Cc1cccc(N2C(=O)NC(=O)/C(=C\c3cccn3-c3ccc(Cl)cc3)C2=O)c1 | inactive: -12.1%
31 | CC(C)c1oc(=O)cc2c1[C@@H](O)[C@H]1OC(=O)[C@@]3(C)C[C@@H](O)[C@@H](O)[C@@]2(C)C13 (stereo not given in full) | inactive: -31.9%
32 | C/C(=C\c1ccc(N(C)C)cc1)[N+](=O)[O-] | inactive: 3.02%
33 | CC(C)N1C(=O)/C(=C/C=C/c2ccco2)C(=O)N(Cc2ccco2)C1=O | inactive: -4.9%
34 | Cc1ccc(-c2cc(-c3ccc(C)cc3)[n+](C)o2)cc1 | inactive: -12%
35 | NC(Cc1nc2ccccc2[nH]1)c1ccc(Cl)cc1 (stereo not given) | inactive: 4.21%
